In patent publication US6579881B2 (Eisai Co., Ltd., priority 1997, dated 2003) one finds Ki data, which are given here for 1 compound.

This test has as its target α1 adrenalin receptor. The experiment in a line: Binding test on [3H] prazosin (α1 adrenalin receptor). The note with it: [3H] prazosin about 0.2 nM, receptor fraction of rat cerebral cortex. The protocol:
(1) Binding Test on Serotonin 1A, Serotonin 2 and α1 Adrenalin Receptors
These compounds and test compounds, when insoluble in water, were dissolved in ethanol and then diluted with distilled water so as to each give an ethanol concentration of 10%. Methysergide maleate was dissolved in distilled water before using.
Use was made of SD rats aged 6 to 8 weeks.
The rats were sacrificed by dcapitation to extirpate the cerebra. The hippocampus and cortex were separated therefrom and employed in the binding tests respectively on the serotonin 1A receptor and the serotonin 2 receptor.
The hippocampus was mixed with 50 times (on the wet weight basis) as much a 0.32 M sucrose solution while the cortex was mixed with 10 times as much the same solution. Each mixture was homogenized by using a Teflon glass homogenizer and centrifuged at 1,000×g for 10 min. […]
Next, it was filtered through a glass filter with the use of a cell harvester. After washing the glass filter with 50 mM Tris hydrochloride (pH 7.4), the radioactivity of the receptor was measured with a liquid scintillation counter. The binding detected in the presence of 10 μM of phentolamine was referred to as the nonspecific binding.
Subsequently, the abilities of typical examples of the compounds of the present invention to bind to the α1 adrenalin receptor were evaluated by the test method described above.

Where a name gives a salt, the structure may show the parent alone.

On to `CN1CCC(=C2c3ccccc3C=Cc3ccccc32)CC1` [Cyproheptadine, cyproheptadine hydrochloride, reference compound], for which the Ki (commonly the equilibrium dissociation constant of an inhibitor or competing ligand from its target) stood at 1900 nM.
